According to the supplement of paper PMC10849652:
Some of the results follow.

Sequences of proteins named here, by UniProt entry; tags and fusion partners are left off. A change or cut given only in a name is not applied to a line headed by its entry.
UniProt P21333, whole entry, looked up: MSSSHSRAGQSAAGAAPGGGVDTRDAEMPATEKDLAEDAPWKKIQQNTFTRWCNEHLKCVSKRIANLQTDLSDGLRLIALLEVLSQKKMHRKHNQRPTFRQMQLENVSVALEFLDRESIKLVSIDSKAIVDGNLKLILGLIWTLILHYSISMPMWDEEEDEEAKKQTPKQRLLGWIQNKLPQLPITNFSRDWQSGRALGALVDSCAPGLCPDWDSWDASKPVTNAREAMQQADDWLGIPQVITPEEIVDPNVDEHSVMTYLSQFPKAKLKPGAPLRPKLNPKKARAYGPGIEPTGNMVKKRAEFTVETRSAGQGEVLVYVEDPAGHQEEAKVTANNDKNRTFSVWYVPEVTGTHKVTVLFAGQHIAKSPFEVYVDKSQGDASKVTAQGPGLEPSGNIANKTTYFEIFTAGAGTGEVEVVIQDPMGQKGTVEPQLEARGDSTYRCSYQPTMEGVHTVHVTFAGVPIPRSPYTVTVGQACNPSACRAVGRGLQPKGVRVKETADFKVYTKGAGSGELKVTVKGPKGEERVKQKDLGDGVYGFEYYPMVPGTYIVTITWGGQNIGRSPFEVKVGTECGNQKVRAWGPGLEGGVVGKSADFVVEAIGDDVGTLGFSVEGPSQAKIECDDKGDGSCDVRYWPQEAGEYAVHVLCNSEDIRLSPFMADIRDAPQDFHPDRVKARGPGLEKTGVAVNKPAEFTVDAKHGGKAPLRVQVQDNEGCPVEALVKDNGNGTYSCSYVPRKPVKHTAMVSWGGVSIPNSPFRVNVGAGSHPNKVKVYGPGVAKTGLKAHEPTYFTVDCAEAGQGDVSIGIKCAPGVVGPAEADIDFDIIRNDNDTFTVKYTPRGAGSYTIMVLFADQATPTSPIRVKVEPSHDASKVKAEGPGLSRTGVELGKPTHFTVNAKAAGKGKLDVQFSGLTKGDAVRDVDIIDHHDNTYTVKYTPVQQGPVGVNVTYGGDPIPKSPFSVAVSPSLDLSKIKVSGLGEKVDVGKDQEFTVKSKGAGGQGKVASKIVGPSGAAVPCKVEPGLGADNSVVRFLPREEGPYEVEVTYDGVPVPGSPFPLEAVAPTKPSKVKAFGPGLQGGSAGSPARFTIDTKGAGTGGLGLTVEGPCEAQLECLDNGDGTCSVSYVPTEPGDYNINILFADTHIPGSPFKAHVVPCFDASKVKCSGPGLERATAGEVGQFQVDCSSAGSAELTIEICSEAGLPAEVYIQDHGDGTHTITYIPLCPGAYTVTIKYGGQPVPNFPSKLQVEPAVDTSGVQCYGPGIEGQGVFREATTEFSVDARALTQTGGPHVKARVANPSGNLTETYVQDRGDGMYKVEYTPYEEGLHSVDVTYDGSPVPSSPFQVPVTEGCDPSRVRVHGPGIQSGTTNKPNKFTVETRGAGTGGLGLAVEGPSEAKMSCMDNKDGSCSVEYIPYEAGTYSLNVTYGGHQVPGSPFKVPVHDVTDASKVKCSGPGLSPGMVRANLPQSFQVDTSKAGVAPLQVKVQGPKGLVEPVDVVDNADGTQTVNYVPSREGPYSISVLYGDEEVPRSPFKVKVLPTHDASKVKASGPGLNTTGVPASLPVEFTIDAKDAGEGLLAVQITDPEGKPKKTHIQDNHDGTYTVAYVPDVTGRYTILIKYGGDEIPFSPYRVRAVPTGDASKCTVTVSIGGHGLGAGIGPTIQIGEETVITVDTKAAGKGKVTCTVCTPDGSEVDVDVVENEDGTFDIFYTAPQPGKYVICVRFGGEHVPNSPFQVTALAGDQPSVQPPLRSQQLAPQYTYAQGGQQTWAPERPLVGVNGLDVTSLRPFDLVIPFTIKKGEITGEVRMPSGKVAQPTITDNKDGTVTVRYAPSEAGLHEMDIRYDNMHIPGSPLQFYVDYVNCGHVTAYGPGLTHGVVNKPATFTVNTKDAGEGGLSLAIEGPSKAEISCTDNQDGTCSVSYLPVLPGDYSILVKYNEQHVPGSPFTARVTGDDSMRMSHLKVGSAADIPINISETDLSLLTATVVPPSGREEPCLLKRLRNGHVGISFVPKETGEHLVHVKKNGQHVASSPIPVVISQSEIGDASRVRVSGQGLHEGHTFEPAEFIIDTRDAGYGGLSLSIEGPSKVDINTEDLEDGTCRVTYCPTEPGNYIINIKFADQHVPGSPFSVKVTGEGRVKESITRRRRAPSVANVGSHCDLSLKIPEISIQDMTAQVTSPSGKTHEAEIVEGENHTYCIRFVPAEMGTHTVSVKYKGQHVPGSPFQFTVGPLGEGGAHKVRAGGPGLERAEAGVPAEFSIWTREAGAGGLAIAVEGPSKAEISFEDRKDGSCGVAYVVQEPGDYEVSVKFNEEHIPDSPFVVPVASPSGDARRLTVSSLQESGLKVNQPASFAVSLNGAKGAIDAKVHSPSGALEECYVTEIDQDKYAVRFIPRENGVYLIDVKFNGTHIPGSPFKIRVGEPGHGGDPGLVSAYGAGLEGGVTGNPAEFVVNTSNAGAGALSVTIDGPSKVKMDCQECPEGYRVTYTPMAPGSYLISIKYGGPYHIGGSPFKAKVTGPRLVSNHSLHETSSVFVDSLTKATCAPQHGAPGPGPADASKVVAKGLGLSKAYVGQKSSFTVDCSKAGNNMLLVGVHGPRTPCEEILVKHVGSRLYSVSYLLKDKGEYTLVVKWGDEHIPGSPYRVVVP
UniProt Q9Y3I1: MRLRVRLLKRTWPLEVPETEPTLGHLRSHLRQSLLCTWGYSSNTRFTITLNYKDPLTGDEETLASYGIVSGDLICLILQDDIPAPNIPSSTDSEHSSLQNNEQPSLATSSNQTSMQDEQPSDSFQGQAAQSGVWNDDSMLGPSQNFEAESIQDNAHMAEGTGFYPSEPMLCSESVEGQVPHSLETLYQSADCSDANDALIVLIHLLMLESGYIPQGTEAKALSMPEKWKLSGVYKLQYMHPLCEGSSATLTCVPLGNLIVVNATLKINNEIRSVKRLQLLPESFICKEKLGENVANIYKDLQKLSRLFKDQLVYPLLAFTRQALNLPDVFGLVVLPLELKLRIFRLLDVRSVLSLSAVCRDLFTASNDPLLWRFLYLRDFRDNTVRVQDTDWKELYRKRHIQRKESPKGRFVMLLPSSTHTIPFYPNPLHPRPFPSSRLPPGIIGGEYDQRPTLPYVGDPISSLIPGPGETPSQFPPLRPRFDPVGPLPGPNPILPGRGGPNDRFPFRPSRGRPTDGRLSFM
UniProt Q9UKT4: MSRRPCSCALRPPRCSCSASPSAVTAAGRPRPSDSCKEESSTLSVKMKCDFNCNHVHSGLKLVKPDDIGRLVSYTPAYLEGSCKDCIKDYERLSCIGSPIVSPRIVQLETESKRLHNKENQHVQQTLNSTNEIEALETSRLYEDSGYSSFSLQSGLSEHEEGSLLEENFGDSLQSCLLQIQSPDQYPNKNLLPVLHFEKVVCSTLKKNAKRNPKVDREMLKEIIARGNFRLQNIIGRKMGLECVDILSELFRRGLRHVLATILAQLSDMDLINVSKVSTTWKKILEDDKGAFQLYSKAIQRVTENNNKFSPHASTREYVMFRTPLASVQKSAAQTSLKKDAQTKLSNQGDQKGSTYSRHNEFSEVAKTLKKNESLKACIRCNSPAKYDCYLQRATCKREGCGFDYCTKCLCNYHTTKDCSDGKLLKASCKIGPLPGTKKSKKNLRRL
UniProt Q9NVK5: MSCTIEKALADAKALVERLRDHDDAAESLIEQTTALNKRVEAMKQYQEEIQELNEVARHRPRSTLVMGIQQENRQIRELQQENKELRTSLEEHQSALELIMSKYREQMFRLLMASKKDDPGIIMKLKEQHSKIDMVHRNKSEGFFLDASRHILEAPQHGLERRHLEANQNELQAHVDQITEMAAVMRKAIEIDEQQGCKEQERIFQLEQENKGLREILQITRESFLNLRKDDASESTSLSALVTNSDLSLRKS
UniProt Q9UHY8: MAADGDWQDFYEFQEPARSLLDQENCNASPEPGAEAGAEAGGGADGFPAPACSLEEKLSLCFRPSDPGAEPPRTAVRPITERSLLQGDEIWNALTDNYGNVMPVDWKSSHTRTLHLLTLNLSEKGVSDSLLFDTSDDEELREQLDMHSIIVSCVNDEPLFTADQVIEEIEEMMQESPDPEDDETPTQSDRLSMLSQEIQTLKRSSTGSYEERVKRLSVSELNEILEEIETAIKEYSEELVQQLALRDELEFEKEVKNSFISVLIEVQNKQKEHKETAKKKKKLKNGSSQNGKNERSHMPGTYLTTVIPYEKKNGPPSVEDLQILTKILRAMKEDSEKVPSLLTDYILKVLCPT
UniProt Q96KR6: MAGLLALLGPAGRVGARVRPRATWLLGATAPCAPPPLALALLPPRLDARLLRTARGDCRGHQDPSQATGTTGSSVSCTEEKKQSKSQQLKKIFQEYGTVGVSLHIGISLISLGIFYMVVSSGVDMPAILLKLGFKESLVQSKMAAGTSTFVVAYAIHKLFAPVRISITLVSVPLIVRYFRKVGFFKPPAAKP
UniProt P09038, whole entry, looked up: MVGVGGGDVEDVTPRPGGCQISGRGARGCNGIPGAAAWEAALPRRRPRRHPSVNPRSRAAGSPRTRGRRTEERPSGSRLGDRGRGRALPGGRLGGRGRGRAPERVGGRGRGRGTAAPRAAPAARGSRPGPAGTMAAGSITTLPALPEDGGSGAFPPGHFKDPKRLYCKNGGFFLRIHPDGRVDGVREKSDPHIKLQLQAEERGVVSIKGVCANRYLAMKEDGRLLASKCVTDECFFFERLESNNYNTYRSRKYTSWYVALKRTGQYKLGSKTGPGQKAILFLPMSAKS
UniProt Q658Y4: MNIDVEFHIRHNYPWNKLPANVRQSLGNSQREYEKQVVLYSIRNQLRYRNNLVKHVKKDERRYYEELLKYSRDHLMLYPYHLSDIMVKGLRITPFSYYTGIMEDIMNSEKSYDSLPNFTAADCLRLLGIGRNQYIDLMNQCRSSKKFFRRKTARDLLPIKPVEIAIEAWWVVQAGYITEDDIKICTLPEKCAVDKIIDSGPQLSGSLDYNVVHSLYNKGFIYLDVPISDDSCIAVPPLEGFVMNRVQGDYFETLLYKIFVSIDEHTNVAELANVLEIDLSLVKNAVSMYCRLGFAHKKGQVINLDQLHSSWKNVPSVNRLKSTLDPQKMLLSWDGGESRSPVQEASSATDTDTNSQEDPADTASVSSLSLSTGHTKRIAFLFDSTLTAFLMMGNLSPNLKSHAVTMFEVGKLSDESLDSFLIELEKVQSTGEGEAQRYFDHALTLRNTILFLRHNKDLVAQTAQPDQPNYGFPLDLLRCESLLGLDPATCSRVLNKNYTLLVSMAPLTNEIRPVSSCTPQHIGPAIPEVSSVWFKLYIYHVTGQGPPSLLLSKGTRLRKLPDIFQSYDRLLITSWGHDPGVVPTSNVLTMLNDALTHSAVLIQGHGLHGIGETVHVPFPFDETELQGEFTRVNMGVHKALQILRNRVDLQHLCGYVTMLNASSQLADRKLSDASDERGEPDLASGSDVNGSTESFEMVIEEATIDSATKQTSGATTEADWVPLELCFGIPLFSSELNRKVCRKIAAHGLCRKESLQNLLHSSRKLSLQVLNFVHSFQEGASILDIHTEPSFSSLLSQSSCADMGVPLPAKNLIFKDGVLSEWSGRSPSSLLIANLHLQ
UniProt P22830: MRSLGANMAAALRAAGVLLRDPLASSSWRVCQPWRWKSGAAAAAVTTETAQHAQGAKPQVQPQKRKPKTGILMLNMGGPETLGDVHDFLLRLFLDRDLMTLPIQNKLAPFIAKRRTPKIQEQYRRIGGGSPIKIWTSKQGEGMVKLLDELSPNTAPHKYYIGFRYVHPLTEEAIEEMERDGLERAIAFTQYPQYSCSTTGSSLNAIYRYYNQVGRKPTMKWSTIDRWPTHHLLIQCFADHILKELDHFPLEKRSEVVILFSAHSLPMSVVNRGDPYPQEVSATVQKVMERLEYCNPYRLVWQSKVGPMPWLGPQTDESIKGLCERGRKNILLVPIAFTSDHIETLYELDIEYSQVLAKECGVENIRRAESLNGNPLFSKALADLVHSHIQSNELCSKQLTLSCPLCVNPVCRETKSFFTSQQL
UniProt Q00688: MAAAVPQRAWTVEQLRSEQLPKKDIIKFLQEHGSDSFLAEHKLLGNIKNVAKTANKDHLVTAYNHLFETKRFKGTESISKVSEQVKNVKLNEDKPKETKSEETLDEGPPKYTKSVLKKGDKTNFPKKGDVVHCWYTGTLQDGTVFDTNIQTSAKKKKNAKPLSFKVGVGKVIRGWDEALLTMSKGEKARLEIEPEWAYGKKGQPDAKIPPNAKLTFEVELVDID
UniProt Q14318: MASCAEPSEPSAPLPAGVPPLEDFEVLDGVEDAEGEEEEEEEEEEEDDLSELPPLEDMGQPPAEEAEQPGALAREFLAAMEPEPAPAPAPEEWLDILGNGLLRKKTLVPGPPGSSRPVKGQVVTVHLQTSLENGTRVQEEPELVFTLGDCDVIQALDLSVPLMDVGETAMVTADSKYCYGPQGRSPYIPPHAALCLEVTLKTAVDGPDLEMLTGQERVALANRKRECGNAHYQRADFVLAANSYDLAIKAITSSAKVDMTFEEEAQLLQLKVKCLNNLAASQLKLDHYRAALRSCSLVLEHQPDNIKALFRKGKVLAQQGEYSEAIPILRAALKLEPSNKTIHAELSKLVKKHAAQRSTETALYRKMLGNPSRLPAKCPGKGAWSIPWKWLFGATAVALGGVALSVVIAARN

Tests used:
Experiment in all cases: log2 fold change, soluble protein after heating vs DMSO (PISA); higher = thermal stabilisation; K562 cells, 10 uM, 30 min; active = over 0.2 and 3.5 SD of the protein, either way, in both replicates (recomputed)
[1] = compound: C1=CC=C(C=C1)[C@H](COC2=CC3=C(C=C2)NC(=O)N3)NC(=O)C4=CC=CN(C4=O)CC5=CC(=C(C=C5)F)F
How it was run: (§1)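 K562 cells (2×10^6 cells/mL) were treated with 10 μM compound for 30 min, and aliquots were heated for 3 min over 48°C-58°C. Pooled aliquots were extracted in PBS with 0.5% NP-40 at 4°C, and the supernatant after 21,000xg for 90 min was measured by TMTpro 16plex LC-MS/MS with channel sums equalised. Reported thermal stability, relative to control samples and from duplicates, is a log2 fold change.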

[2] = compound: CC1=C(SC2=C1C(=N[C@H](C3=NN=C(N32)C)CC(=O)N)C4=CC=C(C=C4)Cl)C
How it was run: as §1

[3] = compound: CC1=C2C(=CC=C1)N=C(N(C2=O)C3=CC=CC=C3C)CN4C=NC5=C(N=CN=C54)N
How it was run: as §1

[4] = compound: Cc1sc2c(c1C)C(c1ccc(Cl)cc1)=N[C@@H](CC(=O)OC(C)(C)C)c1nnc(C)n1-2
How it was run: as §1

[5] = compound: c1ccc([C@@H]2C[C@H]2NC2CCNCC2)cc1
How it was run: as §1

Measured: log2 fold change

FLNA (UniProt P21333)
inactive: [1] -0.11 | [2] 0.016 | [3] 0.049 | [4] 0.019 | [5] -0.008

FKBP1A (UniProt P62942)
inactive: [1] 0.116 | [2] 0.124 | [3] 0.207 | [4] -0.101 | [5] -0.158

FAM98A (UniProt Q8NCA5)
inactive: [1] 0.028 | [2] -0.12 | [3] -0.109 | [4] 0.199 | [5] 0

FBXO7 (UniProt Q9Y3I1)
inactive: [1] -0.002 | [2] 0.033 | [3] 0.045 | [4] -0.033 | [5] 0.024

FBXO5 (UniProt Q9UKT4)
inactive: [1] -0.027 | [2] 0.002 | [3] 0.02 | [4] -0.019 | [5] 0.002

Copied from the entries so far (2 entries):
FAM98A (UniProt Q8NCA5)
inactive: [1] 0.028 | [2] -0.12 | [3] -0.109 | [4] 0.199 | [5] 0

FBXO7 (UniProt Q9Y3I1)
inactive: [1] -0.002 | [2] 0.033 | [3] 0.045 | [4] -0.033 | [5] 0.024

Later entries

FAU (UniProt P62861)
inactive: [1] 0.13 | [2] -0.33 | [3] -0.273 | [4] 0.12 | [5] -0.001

FLVCR1 (UniProt Q9Y5Y0)
inactive: [1] -0.035 | [2] 0 | [3] 0.032 | [4] -0.081 | [5] 0.049

FGFR1OP2 (UniProt Q9NVK5)
inactive: [1] 0.022 | [2] 0.006 | [3] 0.091 | [4] 0.079 | [5] -0.028

FIBP (UniProt O43427)
inactive: [1] 0.091 | [2] 0.152 | [3] 0.042 | [4] -0.105 | [5] -0.011

FBXO3 (UniProt Q9UK99)
inactive: [1] 0.006 | [2] -0.03 | [3] 0.033 | [4] 0.055 | [5] 0.127

FAM210A (UniProt Q96ND0)
inactive: [1] 0.053 | [2] 0.068 | [3] -0.075 | [4] -0.058 | [5] 0.075

FGB (UniProt P02675)
inactive: [1] -0.15 | [2] 0 | [3] 0.149 | [4] 0.029 | [5] -0.195

FEZ2 isoform 2 (UniProt Q9UHY8)
inactive: [1] 0.081 | [2] 0.031 | [3] 0.148 | [5] 0.113

FAM210B (UniProt Q96KR6)
inactive: [1] 0.022 | [2] -0.018 | [3] -0.08 | [5] 0.015

FGF2 (UniProt P09038)
inactive: [1] -0.019 | [2] -0.019 | [3] -0.016 | [4] 0.072 | [5] 0.015

FAM91A1 (UniProt Q658Y4)
inactive: [1] 0 | [2] 0.04 | [3] 0.028 | [4] 0.013 | [5] -0.043

FECH isoform 2 (UniProt P22830)
inactive: [1] 0.008 | [2] 0.03 | [3] 0.023 | [4] -0.07 | [5] -0.08

FAM8A1 (UniProt Q9UBU6)
inactive: [1] -0.036 | [2] 0.067 | [3] 0.001 | [4] 0.053 | [5] 0.032

FDFT1 (UniProt P37268)
active: [2] 0.319
inactive: [1] -0.064 | [3] 0.089 | [4] 0.109 | [5] -0.021

FBXL20 (UniProt Q96IG2)
inactive: [1] -0.068 | [2] 0.005 | [3] 0.03 | [4] -0.022 | [5] 0.005

FKBP3 (UniProt Q00688)
inactive: [1] 0.014 | [2] 0.003 | [3] 0.01 | [4] 0.011 | [5] -0.016

FKBP8 isoform 2 (UniProt Q14318)
inactive: [1] 0.015 | [2] -0.075 | [3] 0.009 | [4] 0 | [5] -0.027

FGGY isoform 3 (UniProt Q96C11)
inactive: [1] -0.057 | [2] -0.159 | [3] -0.078 | [4] -0.257 | [5] 0.244

FKBP2 (UniProt P26885)
inactive: [1] 0.042 | [2] 0.027 | [3] 0.072 | [4] -0.041 | [5] -0.018

FDXR isoform 7 (UniProt P22570)
inactive: [1] -0.069 | [2] 0.106 | [3] 0.038 | [4] -0.037 | [5] -0.01
